Test results from the supplement of paper PMC10849652.
The other results are listed elsewhere or left out.

By UniProt entry, the sequences of proteins in these tests, tags left out. Where a name states a change or a piece, a line headed by the entry shows the natural chain unless it says otherwise.
UniProt Q9Y277: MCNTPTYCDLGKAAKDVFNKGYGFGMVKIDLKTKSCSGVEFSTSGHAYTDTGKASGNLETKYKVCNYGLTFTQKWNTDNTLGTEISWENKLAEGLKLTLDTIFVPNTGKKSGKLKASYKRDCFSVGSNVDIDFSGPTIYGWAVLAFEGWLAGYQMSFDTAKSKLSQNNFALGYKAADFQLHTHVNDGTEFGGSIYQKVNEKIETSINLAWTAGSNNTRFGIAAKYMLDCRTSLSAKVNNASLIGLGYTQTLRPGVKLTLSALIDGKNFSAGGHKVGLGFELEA
UniProt Q9NYU2: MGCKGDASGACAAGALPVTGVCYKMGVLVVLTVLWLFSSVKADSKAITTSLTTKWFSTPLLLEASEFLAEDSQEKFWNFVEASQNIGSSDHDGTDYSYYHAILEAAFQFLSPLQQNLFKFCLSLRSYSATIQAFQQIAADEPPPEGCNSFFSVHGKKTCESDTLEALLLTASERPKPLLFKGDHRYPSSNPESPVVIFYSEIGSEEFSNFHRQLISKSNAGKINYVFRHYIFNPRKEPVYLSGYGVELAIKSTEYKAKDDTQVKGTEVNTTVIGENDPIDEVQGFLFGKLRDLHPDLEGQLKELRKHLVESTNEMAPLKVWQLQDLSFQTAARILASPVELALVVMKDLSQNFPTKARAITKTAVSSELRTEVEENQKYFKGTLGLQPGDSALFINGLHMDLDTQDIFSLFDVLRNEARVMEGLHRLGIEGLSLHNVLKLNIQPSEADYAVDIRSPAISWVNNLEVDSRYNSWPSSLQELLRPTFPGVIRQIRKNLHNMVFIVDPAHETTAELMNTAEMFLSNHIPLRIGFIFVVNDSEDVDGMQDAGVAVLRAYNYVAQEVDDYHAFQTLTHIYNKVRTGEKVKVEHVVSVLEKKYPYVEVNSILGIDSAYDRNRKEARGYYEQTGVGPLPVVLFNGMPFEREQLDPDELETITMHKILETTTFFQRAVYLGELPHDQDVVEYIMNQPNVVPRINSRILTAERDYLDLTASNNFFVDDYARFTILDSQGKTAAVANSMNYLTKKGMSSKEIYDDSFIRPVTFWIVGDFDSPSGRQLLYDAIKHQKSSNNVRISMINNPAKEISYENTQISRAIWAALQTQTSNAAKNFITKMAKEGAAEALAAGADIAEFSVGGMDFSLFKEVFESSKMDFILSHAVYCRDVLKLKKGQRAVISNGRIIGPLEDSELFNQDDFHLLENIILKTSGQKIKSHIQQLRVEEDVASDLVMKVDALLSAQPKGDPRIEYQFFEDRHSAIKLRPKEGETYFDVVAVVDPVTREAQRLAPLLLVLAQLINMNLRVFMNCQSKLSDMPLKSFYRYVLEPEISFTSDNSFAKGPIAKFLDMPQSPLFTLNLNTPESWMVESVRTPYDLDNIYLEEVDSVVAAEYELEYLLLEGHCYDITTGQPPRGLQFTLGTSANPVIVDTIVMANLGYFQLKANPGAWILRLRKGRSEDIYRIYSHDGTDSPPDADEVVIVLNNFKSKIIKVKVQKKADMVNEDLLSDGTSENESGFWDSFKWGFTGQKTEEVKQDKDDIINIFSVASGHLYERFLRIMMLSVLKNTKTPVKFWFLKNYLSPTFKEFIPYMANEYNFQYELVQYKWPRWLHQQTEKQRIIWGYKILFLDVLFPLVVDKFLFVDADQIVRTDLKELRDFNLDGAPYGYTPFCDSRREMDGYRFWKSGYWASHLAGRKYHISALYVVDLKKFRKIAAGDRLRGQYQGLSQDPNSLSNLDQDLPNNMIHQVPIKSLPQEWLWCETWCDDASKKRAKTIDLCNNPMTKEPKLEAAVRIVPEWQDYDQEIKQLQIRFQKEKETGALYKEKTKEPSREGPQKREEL
UniProt P21796, whole entry, looked up: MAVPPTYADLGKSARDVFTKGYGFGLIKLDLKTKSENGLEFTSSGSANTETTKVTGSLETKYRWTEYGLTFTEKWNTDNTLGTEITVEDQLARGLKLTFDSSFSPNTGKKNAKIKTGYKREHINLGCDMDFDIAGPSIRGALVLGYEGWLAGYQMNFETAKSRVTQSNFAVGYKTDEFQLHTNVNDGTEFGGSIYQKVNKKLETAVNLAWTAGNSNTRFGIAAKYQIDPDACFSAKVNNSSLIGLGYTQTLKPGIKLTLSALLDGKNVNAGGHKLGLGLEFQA
UniProt P07919: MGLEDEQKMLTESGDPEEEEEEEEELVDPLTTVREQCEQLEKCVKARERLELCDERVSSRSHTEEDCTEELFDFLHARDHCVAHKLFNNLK
UniProt A6NIH7: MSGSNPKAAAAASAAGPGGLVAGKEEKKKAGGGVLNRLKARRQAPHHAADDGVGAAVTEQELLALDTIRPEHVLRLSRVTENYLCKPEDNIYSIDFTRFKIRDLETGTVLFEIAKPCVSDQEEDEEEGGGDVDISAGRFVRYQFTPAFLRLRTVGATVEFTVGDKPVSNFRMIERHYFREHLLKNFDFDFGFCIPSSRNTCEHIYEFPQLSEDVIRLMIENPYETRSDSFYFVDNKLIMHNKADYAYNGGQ
UniProt Q15836, whole entry, looked up: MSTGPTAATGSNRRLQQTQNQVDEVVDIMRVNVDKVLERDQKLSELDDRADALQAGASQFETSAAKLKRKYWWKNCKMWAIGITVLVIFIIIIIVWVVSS
UniProt Q96RU2: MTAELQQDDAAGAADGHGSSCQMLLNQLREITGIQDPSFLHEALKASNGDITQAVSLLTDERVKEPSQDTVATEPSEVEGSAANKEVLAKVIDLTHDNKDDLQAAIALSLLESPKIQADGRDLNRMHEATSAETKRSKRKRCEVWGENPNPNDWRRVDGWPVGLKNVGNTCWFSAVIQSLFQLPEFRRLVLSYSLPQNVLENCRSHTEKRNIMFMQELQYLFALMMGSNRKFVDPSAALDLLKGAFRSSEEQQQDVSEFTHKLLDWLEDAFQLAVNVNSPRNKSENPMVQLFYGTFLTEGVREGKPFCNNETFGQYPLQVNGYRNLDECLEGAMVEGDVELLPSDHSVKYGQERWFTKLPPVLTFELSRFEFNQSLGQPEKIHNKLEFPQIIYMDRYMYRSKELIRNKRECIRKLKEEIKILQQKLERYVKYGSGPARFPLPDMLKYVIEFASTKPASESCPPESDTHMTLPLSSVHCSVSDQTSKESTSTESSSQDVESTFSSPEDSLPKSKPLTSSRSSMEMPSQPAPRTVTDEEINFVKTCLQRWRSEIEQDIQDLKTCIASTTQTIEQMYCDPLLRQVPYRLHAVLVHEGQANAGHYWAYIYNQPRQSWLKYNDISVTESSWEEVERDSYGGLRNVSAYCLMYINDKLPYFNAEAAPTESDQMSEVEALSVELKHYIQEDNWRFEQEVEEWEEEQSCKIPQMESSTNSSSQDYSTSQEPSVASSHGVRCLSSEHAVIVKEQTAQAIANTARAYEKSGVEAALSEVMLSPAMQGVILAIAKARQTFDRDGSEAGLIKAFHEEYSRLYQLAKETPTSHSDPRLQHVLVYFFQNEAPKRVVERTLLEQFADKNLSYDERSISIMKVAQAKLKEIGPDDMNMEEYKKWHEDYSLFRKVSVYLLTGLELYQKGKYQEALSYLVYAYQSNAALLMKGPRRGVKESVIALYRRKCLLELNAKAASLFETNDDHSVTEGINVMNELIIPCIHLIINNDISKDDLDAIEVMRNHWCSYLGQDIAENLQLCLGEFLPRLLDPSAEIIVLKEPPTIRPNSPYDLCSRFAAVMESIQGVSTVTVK
UniProt Q92900: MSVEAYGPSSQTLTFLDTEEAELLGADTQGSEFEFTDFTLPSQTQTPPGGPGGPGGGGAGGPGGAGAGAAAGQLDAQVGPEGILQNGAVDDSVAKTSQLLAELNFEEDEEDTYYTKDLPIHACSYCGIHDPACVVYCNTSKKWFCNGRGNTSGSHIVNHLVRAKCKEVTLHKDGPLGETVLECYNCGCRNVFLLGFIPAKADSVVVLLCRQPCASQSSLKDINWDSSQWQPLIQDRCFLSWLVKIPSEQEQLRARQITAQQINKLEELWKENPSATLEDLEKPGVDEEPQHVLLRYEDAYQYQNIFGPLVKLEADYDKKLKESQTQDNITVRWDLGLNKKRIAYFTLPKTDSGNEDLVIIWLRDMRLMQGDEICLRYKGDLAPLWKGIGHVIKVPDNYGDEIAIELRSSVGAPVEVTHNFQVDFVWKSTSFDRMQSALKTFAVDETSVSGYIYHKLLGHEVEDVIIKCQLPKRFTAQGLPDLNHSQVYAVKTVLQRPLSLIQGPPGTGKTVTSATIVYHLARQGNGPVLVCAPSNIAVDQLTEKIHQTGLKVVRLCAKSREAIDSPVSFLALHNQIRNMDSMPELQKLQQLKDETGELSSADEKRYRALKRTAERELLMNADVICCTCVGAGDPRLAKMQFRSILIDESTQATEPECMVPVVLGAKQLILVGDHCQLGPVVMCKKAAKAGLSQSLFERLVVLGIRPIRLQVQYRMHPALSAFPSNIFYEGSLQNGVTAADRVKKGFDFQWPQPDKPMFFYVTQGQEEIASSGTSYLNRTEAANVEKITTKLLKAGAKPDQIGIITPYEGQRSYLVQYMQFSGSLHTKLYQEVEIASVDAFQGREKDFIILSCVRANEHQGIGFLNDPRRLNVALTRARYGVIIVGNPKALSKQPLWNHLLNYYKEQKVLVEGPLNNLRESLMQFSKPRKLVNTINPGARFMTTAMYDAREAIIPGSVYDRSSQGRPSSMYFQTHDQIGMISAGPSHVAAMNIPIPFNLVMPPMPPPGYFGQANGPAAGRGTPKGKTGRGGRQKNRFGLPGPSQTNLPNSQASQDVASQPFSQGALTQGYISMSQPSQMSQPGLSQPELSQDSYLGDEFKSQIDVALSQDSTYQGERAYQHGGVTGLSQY
UniProt O75379: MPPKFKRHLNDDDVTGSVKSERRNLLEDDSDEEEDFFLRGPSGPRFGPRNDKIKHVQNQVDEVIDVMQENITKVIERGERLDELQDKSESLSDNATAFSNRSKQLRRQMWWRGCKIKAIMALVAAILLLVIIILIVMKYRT
UniProt Q96K76: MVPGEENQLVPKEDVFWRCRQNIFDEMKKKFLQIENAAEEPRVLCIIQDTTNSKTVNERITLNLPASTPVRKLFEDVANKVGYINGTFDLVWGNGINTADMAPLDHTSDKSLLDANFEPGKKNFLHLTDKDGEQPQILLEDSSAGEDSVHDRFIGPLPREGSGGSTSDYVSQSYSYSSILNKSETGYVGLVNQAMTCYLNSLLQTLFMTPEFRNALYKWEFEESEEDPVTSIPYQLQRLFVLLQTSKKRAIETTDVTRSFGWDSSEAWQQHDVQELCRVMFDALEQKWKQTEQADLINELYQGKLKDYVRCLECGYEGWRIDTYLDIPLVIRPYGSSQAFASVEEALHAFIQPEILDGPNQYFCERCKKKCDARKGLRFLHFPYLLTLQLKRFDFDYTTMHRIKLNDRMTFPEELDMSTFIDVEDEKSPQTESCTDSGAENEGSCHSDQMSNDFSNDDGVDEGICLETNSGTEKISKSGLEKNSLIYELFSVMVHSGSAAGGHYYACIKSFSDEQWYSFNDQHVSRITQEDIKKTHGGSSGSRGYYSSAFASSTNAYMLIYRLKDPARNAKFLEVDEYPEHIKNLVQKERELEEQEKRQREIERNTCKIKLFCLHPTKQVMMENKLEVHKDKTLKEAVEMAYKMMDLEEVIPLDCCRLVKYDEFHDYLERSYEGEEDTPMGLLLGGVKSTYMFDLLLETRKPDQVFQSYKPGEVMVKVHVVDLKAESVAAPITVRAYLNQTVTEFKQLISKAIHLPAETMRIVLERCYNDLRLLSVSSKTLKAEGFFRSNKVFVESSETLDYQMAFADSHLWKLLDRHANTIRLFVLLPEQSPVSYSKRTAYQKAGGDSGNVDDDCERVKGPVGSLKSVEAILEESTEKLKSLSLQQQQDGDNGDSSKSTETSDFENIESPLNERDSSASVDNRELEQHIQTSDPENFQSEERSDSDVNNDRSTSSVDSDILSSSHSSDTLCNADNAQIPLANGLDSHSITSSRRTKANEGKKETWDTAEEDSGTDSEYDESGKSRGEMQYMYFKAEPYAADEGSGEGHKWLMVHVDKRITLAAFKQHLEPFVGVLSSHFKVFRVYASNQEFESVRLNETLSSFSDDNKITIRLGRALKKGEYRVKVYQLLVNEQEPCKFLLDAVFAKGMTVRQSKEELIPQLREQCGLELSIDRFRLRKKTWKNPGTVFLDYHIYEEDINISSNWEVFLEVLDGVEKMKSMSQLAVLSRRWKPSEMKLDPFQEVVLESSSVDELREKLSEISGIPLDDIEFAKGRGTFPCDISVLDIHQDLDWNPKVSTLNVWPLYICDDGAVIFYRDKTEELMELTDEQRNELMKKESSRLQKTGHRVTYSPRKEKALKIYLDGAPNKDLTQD
UniProt P61758, whole entry, looked up: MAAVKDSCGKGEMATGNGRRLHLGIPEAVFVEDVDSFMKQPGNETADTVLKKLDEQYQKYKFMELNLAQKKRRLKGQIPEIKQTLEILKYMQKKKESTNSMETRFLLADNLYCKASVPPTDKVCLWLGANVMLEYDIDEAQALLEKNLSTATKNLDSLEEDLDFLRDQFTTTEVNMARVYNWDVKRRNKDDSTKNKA

Legend:
Assay in all cases: log2 fold change, soluble protein after heating vs DMSO (PISA); higher = thermal stabilisation; K562 lysate, 10 uM; active = over 0.2 and 3.5 SD of the protein, either way, in both replicates (recomputed)
lapatinib = compound: CS(=O)(=O)CCNCc1ccc(-c2ccc3ncnc(Nc4ccc(OCc5cccc(F)c5)c(Cl)c4)c3c2)o1 [lapatinib]
Outline: (§1)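 Dounce homogenisation of K562 pellets in PBS pH 7.4 with 1 mM MgCl2 produced a crude extract, used at 1 mg/mL protein. Exposure to 10 μM compound lasted 30 min, and aliquots were then heated for 3 min across 48°C-58°C, pooled and brought to 0.5% NP-40 at 4°C. The supernatant after 21,000xg for 90 min was quantified by TMTpro 16plex LC-MS/MS with channel sums equalised. Duplicate values are given as log-two fold change in thermal stability relative to solvent controls.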

pictilisib = compound: CS(=O)(=O)N1CCN(Cc2cc3nc(-c4cccc5[nH]ncc45)nc(N4CCOCC4)c3s2)CC1 [pictilisib]
Outline: as §1

crizotinib = compound: C[C@@H](Oc1cc(-c2cnn(C3CCNCC3)c2)cnc1N)c1c(Cl)ccc(F)c1Cl [crizotinib]
Outline: as §1

[1] = compound: C[C@H](C1=CC=C(C=C1)C(=O)NC2=C3C=CNC3=NC=C2)N
Outline: as §1

duvelisib = compound: C[C@H](Nc1ncnc2nc[nH]c12)c1cc2cccc(Cl)c2c(=O)n1-c1ccccc1 [duvelisib]
Outline: as §1

gandotinib = compound: Cc1cc(Nc2cc(CN3CCOCC3)c3nc(C)c(Cc4ccc(Cl)cc4F)n3n2)n[nH]1 [gandotinib]
Outline: as §1

tozasertib = compound: Cc1cc(Nc2cc(N3CCN(C)CC3)nc(Sc3ccc(NC(=O)C4CC4)cc3)n2)n[nH]1 [tozasertib]
Outline: as §1

doramapimod = compound: Cc1ccc(-n2nc(C(C)(C)C)cc2NC(=O)Nc2ccc(OCCN3CCOCC3)c3ccccc23)cc1 [doramapimod]
Outline: as §1

bafetinib = compound: Cc1ccc(NC(=O)c2ccc(CN3CC[C@H](N(C)C)C3)c(C(F)(F)F)c2)cc1Nc1nccc(-c2cncnc2)n1 [bafetinib]
Outline: as §1

[2] = compound: Cc1cccc(CC(=O)N2CCc3c2ccc(-c2cn(C)c4ncnc(N)c24)c3F)n1
Outline: as §1

nilotinib = compound: Cc1cn(-c2cc(NC(=O)c3ccc(C)c(Nc4nccc(-c5cccnc5)n4)c3)cc(C(F)(F)F)c2)cn1 [nilotinib]
Outline: as §1

[3] = compound: Cc1nc(Nc2n[nH]c3c2CN(C(=O)N[C@H](CN(C)C)c2ccccc2)C3(C)C)c2sccc2n1
Outline: as §1

dasatinib = compound: Cc1nc(Nc2ncc(C(=O)Nc3c(C)cccc3Cl)s2)cc(N2CCN(CCO)CC2)n1 [dasatinib]
Outline: as §1

[4] = compound: Cc1ncc(-c2ccnc(Nc3ccc(S(C)(=O)=O)cc3)n2)n1C(C)C
Outline: as §1

[5] = compound: Cn1cc(-c2ccc3c(c2)CCN3C(=O)Cc2cccc(C(F)(F)F)c2)c2c(N)ncnc21
Outline: as §1

quisinostat = compound: Cn1cc(CNCC2CCN(c3ncc(C(=O)NO)cn3)CC2)c2ccccc21 [quisinostat]
Outline: as §1

tipifarnib = compound: Cn1cncc1[C@@](N)(c1ccc(Cl)cc1)c1ccc2c(c1)c(-c1cccc(Cl)c1)cc(=O)n2C [tipifarnib]
Outline: as §1

[6] = compound: NC(=O)Nc1cc(-c2cccc(F)c2)sc1C(=O)N[C@H]1CCCNC1
Outline: as §1

[7] = compound: NC(=O)c1cnc(N[C@@H]2CCCC[C@@H]2N)nc1Nc1cccc(-n2nccn2)c1
Outline: as §1

[8] = compound: NC1(c2ccc(-c3nc4ccn5c(=O)[nH]nc5c4cc3-c3ccccc3)cc2)CCC1
Outline: as §1

Measured: log2 fold change

UHRF1BP1 (UniProt Q6BDS2)
inactive: lapatinib 0.093 | pictilisib -0.033 | crizotinib 0.027 | [1] -0.081 | duvelisib -0.047 | gandotinib 0.239 | tozasertib 0.018 | doramapimod 0.025 | bafetinib -0.001 | [2] 0.087 | nilotinib 0.077 | [3] 0.034 | dasatinib 0.009 | [4] 0.03 | [5] -0.015 | quisinostat 0.013 | tipifarnib -0.045 | [6] 0.007 | [7] 0.007 | [8] 0.022

VDAC3 (UniProt Q9Y277)
inactive: lapatinib -0.011 | pictilisib -0.033 | crizotinib -0.005 | [1] -0.095 | duvelisib -0.013 | gandotinib 0.042 | tozasertib -0.015 | doramapimod -0.028 | bafetinib -0.022 | [2] 0.011 | nilotinib 0.051 | [3] -0.022 | dasatinib -0.018 | [4] 0.005 | [5] -0.019 | quisinostat -0.012 | tipifarnib 0.032 | [6] 0.006 | [7] -0.031 | [8] 0.015

VIM (UniProt P08670)
inactive: lapatinib 0.023 | pictilisib -0.01 | crizotinib 0.038 | [1] 0.027 | duvelisib -0.051 | gandotinib -0.054 | tozasertib 0.054 | doramapimod 0.02 | bafetinib -0.037 | [2] 0.004 | nilotinib -0.004 | [3] -0.012 | dasatinib -0.023 | [4] 0.018 | [5] -0.012 | quisinostat 0.024 | tipifarnib -0.042 | [6] 0.004 | [7] -0.009 | [8] 0.023

UGGT1 (UniProt Q9NYU2)
inactive: lapatinib -0.008 | pictilisib -0.014 | crizotinib 0.001 | [1] -0.026 | duvelisib -0.023 | gandotinib 0.02 | tozasertib -0.008 | doramapimod -0.002 | bafetinib -0.007 | [2] 0.008 | nilotinib 0.051 | [3] -0.014 | dasatinib 0.006 | [4] 0.015 | [5] -0.001 | quisinostat -0.005 | tipifarnib -0.02 | [6] -0.006 | [7] 0.003 | [8] -0.002

VDAC1 (UniProt P21796)
inactive: lapatinib 0.002 | pictilisib -0.022 | crizotinib 0.007 | [1] -0.018 | duvelisib 0.007 | gandotinib 0.049 | tozasertib -0.003 | doramapimod -0.029 | bafetinib 0.029 | [2] -0.036 | nilotinib 0.041 | [3] -0.003 | dasatinib 0.004 | [4] 0.033 | [5] -0.018 | quisinostat -0.024 | tipifarnib 0 | [6] 0.003 | [7] -0.01 | [8] 0.016

USP32 (UniProt Q8NFA0)
inactive: lapatinib -0.032 | pictilisib -0.06 | crizotinib -0.079 | [1] -0.036 | duvelisib 0.042 | gandotinib -0.07 | tozasertib -0.019 | doramapimod -0.046 | bafetinib 0.067 | [2] 0.085 | nilotinib 0.024 | [3] -0.021 | dasatinib 0.016 | [4] -0.011 | [5] 0.014 | quisinostat -0.078 | tipifarnib -0.045 | [6] 0.07 | [7] -0.005 | [8] -0.069

UQCRH (UniProt P07919)
inactive: lapatinib 0.009 | pictilisib -0.066 | crizotinib 0.035 | [1] -0.056 | duvelisib -0.045 | gandotinib 0.039 | tozasertib 0 | doramapimod -0.021 | bafetinib 0.046 | [2] -0.005 | nilotinib 0.001 | [3] 0.018 | dasatinib 0.012 | [4] 0.015 | [5] -0.016 | quisinostat -0.107 | tipifarnib -0.069 | [6] -0.015 | [7] -0.012 | [8] 0.071

UNC119B (UniProt A6NIH7)
inactive: lapatinib 0.024 | pictilisib -0.016 | crizotinib -0.01 | [1] -0.11 | duvelisib 0.049 | gandotinib 0.075 | tozasertib -0.056 | doramapimod -0.007 | bafetinib 0.077 | [2] 0.022 | nilotinib 0.046 | [3] -0.047 | dasatinib -0.066 | [4] 0.061 | [5] -0.008 | quisinostat 0.24 | tipifarnib -0.068 | [6] -0.043 | [7] -0.03 | [8] 0.029

VAMP3 (UniProt Q15836)
inactive: lapatinib 0.064 | pictilisib -0.011 | crizotinib 0.044 | [1] -0.107 | duvelisib -0.091 | gandotinib 0.014 | tozasertib 0.007 | doramapimod -0.077 | bafetinib 0.035 | [2] 0.017 | nilotinib 0.052 | [3] 0.043 | dasatinib -0.068 | [4] -0.065 | [5] -0.079 | quisinostat -0.103 | tipifarnib -0.004 | [6] -0.08 | [7] 0.007 | [8] 0.036

USP28 isoform 2 (UniProt Q96RU2)
inactive: lapatinib 0.013 | pictilisib -0.06 | crizotinib -0.043 | [1] -0.029 | duvelisib 0.051 | gandotinib -0.023 | tozasertib 0.01 | doramapimod 0.002 | bafetinib -0.029 | [2] 0.059 | nilotinib -0.033 | [3] -0.009 | dasatinib -0.032 | [4] 0.026 | [5] -0.018 | quisinostat -0.082 | tipifarnib -0.005 | [6] -0.002 | [7] 0.012 | [8] 0.027

VAPA isoform 2 (UniProt Q9P0L0)
inactive: lapatinib 0.003 | pictilisib -0.007 | crizotinib 0.008 | [1] -0.154 | duvelisib 0.017 | gandotinib 0.129 | tozasertib 0.025 | doramapimod 0.033 | bafetinib 0.056 | [2] 0.142 | nilotinib 0.041 | [3] -0.015 | dasatinib 0.015 | [4] -0.002 | [5] -0.027 | quisinostat -0.045 | tipifarnib 0.008 | [6] -0.05 | [7] 0.021 | [8] 0.006

VAPA (UniProt Q9P0L0)
inactive: lapatinib -0.005 | pictilisib 0.028 | crizotinib 0.138 | [1] 0.184 | duvelisib -0.055 | gandotinib -0.197 | tozasertib 0.039 | doramapimod -0.055 | bafetinib 0.067 | [2] -0.141 | nilotinib -0.017 | [3] -0.008 | dasatinib 0.031 | [4] 0.003 | [5] 0.08 | quisinostat 0.201 | tipifarnib 0.033 | [6] -0.065 | [7] 0.008 | [8] 0.081

UPF1 (UniProt Q92900)
inactive: lapatinib 0.006 | pictilisib -0.02 | crizotinib 0.03 | [1] 0.008 | duvelisib 0.009 | gandotinib 0.008 | tozasertib -0.036 | doramapimod 0.02 | bafetinib -0.001 | [2] -0.017 | nilotinib -0.009 | [3] -0.003 | dasatinib -0.01 | [4] 0.007 | [5] -0.003 | quisinostat 0.028 | tipifarnib 0.017 | [6] -0.025 | [7] -0.006 | [8] -0.013

Quoted at random: 2 entries already listed
USP28 isoform 2 (UniProt Q96RU2)
inactive: lapatinib 0.013 | pictilisib -0.06 | crizotinib -0.043 | [1] -0.029 | duvelisib 0.051 | gandotinib -0.023 | tozasertib 0.01 | doramapimod 0.002 | bafetinib -0.029 | [2] 0.059 | nilotinib -0.033 | [3] -0.009 | dasatinib -0.032 | [4] 0.026 | [5] -0.018 | quisinostat -0.082 | tipifarnib -0.005 | [6] -0.002 | [7] 0.012 | [8] 0.027

UPF1 (UniProt Q92900)
inactive: lapatinib 0.006 | pictilisib -0.02 | crizotinib 0.03 | [1] 0.008 | duvelisib 0.009 | gandotinib 0.008 | tozasertib -0.036 | doramapimod 0.02 | bafetinib -0.001 | [2] -0.017 | nilotinib -0.009 | [3] -0.003 | dasatinib -0.01 | [4] 0.007 | [5] -0.003 | quisinostat 0.028 | tipifarnib 0.017 | [6] -0.025 | [7] -0.006 | [8] -0.013

(listing goes on)

VAMP4 (UniProt O75379)
inactive: lapatinib 0.036 | pictilisib 0.02 | crizotinib 0.024 | [1] -0.064 | duvelisib 0.044 | gandotinib 0.014 | tozasertib 0.01 | doramapimod 0.062 | bafetinib -0.02 | [2] 0.05 | nilotinib 0.018 | [3] 0.012 | dasatinib -0.03 | [4] -0.396 | [5] 0.056 | quisinostat 0.01 | tipifarnib -0.308 | [6] -0.043 | [7] 0.042 | [8] 0.023

USP47 isoform 4 (UniProt Q96K76)
inactive: lapatinib -0.035 | pictilisib -0.016 | crizotinib -0.022 | [1] 0.031 | duvelisib 0.001 | gandotinib -0.057 | tozasertib -0.006 | doramapimod -0.002 | bafetinib -0.034 | [2] -0.025 | nilotinib -0.006 | [3] -0.021 | dasatinib 0.006 | [4] -0.009 | [5] 0.01 | quisinostat -0.026 | tipifarnib 0.016 | [6] 0.023 | [7] -0.006 | [8] 0.001

VBP1 (UniProt P61758)
inactive: lapatinib 0.027 | pictilisib 0.009 | crizotinib 0.007 | [1] -0.012 | duvelisib 0.001 | gandotinib 0.013 | tozasertib 0.001 | doramapimod 0.013 | bafetinib 0.021 | [2] -0.023 | nilotinib -0.007 | [3] 0.002 | dasatinib 0.026 | [4] -0.008 | [5] 0.001 | quisinostat -0.026 | tipifarnib 0.003 | [6] -0.01 | [7] 0.013 | [8] 0.002
